Source: PMC8505509
These are yes or no findings as the source states them, for the method shown. In cells and extracts the contact can be indirect. Some binding calls cover weakened binding; strength is not graded here.

Legend:
[1] = molecular target: Flag-EGFR (wild-type) (human) (UniProt P00533); assay: co-IP; HEK293T co-transfected with EGFR, FBXL2 and Grp94 plasmids for 36 h, one of the competitors in rising dose, MG132 for 4 h, IP-Western
Flag-EGFR^E931A (human) = Flag-EGFR^E931A (human) (UniProt P00533); assay: co-IP; HEK293T co-transfected with the indicated expression plasmids, MG132 for 4 h, anti-HA or anti-Flag beads, IP-Western; in Fig. 5f, g also with shGrp94 or ganetespib (8 nM, 12 h)
[2] = molecular target: Flag-EGFR (wild-type) (human) (UniProt P00533); assay: as above
FBXO3 = molecular target: T1, FBXO3 (UniProt Q9UK99); assay: co-IP; HEK293T transfected with FBXO3 or FBXO3 mutant plasmids, without or with 10 µM nebivolol for 36 h, MG132, IP-Western; endogenous FBXL2
T1 sequence: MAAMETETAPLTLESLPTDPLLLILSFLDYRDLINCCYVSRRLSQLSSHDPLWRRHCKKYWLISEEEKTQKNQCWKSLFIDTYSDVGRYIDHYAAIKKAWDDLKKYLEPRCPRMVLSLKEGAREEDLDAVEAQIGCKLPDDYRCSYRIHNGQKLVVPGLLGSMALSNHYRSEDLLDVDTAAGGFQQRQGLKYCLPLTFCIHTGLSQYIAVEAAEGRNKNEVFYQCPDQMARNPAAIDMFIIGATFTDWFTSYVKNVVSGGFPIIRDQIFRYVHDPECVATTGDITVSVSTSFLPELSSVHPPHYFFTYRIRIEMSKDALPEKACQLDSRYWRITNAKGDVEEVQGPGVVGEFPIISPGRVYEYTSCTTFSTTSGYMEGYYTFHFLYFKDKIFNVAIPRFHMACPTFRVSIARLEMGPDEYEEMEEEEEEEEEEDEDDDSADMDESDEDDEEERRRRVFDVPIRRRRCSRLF

binding [1] | binding (Flag-EGFR^E931A (human)) | binding [2] | binding (FBXO3) | Substance
binds | binds | binds |  | Myc-Grp94 (from UniProt P14625 22-803)
 |  |  | binds | endogenous FBXL2 (from UniProt Q9UKC9 1-423)
